Laboratory results published in the supplement of paper PMC11732987, “Enantioselective OTUD7B fragment discovery through chemoproteomics screening and high-throughput optimisation” (Communications Chemistry, 2025).
The list shows a part of the results. The data scatter; read single values as rough.

Chains of the proteins cited; added tags and fusions are not shown. Lines headed by an entry give the natural chain unless they say otherwise; changes in a name come on top. Residues count along the entry.
UniProt O75083: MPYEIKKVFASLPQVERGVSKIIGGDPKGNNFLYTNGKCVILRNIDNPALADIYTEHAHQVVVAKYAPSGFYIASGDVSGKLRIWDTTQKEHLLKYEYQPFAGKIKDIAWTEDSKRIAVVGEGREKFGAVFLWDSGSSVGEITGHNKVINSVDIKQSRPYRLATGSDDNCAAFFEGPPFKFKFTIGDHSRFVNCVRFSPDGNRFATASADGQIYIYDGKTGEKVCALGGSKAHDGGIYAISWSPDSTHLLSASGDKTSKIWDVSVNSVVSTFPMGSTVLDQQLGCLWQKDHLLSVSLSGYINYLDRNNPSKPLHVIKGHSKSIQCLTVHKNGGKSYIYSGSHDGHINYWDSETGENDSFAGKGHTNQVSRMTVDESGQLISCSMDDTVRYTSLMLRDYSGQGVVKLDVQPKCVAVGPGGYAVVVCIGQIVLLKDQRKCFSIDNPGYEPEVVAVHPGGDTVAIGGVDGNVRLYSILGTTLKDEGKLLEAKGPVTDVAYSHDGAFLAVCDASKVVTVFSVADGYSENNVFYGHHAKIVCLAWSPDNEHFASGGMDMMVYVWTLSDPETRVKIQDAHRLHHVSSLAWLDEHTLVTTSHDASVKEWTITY
UniProt Q9Y2I8: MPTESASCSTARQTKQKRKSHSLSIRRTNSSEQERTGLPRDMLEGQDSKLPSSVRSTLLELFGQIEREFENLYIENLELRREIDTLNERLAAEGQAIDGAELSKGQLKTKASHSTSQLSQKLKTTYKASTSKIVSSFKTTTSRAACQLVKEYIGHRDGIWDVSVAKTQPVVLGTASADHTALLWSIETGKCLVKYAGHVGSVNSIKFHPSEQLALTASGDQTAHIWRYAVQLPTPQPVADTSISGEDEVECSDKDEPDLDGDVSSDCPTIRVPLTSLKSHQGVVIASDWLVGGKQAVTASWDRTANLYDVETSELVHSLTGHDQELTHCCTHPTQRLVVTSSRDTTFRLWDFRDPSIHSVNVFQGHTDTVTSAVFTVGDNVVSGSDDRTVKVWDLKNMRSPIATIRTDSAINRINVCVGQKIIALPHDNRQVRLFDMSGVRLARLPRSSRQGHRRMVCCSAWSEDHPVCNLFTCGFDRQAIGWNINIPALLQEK
UniProt Q8IXZ2: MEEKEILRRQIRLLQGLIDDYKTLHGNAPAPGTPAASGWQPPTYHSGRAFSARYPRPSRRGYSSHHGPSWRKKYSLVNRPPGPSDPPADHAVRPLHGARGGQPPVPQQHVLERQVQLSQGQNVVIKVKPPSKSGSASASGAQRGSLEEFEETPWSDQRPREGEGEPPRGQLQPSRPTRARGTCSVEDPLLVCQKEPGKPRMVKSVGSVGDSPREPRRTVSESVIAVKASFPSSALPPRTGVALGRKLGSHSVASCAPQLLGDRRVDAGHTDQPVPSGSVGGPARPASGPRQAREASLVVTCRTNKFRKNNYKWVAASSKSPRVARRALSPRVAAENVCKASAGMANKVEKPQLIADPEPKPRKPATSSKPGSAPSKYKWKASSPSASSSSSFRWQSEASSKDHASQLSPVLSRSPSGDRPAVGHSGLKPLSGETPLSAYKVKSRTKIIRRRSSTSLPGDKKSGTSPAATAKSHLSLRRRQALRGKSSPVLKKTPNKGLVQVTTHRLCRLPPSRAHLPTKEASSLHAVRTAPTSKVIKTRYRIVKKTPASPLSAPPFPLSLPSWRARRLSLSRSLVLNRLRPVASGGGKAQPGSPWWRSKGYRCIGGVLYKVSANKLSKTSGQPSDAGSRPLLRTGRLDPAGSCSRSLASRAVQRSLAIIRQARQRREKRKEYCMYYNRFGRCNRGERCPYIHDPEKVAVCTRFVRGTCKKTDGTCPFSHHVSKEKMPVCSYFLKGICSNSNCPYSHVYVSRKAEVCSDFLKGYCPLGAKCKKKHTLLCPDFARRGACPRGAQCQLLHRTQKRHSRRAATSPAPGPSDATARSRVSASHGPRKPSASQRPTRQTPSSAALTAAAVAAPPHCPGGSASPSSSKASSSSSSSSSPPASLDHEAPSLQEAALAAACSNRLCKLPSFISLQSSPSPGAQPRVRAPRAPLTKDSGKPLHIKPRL
UniProt Q9NUA8: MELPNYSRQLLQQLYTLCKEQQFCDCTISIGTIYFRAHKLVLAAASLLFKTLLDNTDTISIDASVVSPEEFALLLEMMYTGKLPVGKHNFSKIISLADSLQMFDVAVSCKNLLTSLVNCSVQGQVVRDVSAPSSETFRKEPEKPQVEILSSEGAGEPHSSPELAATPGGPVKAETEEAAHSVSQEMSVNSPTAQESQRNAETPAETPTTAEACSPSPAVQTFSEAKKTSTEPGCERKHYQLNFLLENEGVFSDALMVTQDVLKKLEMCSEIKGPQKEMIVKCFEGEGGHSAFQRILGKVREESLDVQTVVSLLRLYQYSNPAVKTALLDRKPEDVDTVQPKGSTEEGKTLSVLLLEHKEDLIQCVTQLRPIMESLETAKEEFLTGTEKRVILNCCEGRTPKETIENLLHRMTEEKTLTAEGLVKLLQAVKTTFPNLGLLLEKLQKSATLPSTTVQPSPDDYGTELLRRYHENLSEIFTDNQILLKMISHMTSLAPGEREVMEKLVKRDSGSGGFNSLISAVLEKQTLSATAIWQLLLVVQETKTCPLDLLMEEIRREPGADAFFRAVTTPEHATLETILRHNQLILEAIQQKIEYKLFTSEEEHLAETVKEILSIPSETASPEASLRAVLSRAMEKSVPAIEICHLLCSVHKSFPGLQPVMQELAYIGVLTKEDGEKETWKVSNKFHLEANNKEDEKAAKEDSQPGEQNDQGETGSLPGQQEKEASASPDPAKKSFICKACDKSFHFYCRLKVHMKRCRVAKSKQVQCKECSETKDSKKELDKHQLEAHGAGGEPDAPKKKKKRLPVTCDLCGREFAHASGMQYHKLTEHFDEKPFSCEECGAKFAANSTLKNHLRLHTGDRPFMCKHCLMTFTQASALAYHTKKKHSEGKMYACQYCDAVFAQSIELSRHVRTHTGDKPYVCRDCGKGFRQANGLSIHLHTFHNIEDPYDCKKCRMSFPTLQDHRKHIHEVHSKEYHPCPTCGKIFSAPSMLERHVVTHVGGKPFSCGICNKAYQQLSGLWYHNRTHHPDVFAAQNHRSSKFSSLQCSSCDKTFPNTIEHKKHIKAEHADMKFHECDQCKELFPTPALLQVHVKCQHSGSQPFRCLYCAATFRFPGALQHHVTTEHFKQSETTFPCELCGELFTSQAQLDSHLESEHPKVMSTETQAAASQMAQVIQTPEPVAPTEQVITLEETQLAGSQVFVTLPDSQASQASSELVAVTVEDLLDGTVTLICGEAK
UniProt Q9ULM3, 332-364: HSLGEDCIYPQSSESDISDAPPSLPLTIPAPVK
UniProt Q9HAV4: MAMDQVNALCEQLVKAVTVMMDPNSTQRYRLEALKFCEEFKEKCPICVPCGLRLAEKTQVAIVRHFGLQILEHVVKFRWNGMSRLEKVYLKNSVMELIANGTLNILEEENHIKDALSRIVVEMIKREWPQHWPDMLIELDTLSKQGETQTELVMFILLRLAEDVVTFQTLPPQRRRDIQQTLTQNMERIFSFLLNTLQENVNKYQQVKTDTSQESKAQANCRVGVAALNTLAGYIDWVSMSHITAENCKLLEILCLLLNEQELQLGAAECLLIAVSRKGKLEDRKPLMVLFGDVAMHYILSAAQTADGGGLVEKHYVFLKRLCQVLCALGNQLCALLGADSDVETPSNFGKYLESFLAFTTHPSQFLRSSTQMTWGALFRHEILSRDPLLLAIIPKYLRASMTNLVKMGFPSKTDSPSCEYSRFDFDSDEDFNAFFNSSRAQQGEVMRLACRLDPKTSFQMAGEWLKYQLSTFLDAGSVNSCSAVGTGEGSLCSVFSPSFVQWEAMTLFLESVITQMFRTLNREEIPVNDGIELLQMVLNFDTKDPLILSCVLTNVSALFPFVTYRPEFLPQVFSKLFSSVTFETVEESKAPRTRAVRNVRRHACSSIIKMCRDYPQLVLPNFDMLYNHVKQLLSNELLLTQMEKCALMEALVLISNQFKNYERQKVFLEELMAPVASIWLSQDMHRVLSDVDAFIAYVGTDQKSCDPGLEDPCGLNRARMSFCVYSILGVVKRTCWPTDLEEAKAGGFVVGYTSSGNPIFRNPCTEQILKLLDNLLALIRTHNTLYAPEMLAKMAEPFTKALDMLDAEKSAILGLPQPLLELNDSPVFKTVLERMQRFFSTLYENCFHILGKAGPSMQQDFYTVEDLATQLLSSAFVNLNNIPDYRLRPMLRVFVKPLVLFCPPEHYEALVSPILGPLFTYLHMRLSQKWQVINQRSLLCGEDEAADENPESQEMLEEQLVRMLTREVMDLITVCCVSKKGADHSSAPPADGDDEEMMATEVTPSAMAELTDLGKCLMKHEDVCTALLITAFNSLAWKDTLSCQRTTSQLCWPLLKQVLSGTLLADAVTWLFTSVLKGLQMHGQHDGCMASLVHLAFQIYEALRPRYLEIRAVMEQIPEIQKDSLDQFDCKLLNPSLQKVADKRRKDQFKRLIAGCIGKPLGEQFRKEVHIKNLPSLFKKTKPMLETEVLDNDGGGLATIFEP
UniProt Q8NI36: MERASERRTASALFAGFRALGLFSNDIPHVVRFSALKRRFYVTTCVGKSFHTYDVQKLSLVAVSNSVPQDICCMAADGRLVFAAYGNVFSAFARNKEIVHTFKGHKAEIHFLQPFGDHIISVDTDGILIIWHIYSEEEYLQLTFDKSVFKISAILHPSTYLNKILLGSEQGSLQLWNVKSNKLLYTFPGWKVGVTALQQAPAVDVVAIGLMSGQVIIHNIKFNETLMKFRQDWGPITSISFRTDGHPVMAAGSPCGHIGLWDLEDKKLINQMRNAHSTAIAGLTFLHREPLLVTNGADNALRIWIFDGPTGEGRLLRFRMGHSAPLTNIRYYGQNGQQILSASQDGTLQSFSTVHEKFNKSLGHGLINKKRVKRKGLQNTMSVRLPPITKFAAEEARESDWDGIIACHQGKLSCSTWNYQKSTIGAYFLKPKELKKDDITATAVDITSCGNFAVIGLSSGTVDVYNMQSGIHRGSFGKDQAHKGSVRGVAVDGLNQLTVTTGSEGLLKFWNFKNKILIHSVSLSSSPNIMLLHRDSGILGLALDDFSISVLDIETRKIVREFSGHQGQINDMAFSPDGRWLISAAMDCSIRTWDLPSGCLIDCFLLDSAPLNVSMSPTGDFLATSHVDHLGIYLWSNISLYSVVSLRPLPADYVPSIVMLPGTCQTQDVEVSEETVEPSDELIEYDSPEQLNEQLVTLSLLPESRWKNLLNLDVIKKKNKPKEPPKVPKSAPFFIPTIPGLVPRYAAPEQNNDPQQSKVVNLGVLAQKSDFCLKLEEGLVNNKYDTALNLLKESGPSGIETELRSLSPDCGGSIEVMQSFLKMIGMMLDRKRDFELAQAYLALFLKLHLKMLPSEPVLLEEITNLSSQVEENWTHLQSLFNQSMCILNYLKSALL
UniProt Q9ULJ3, 361-383: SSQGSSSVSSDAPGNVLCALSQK

How the values were obtained:
[1] = compound: ClCC(=O)N[C@@H]1CCCc2ccccc12; assay: log2 mean competition ratio of IA-DTB cysteine labelling (DMSO/compound) (log2 ratio); higher = stronger cysteine engagement by compound; conditions: treatment time: 4 h, cell line lysate: HEK293T
Method: (§1)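 IA-DTB competitive cysteine chemoproteomics in HEK293T RIPA lysate. Lysates were treated with compound 29 or 30 at 50 or 200 µM for 4 h, then IA-DTB (500 µM, 1 h), trypsin-digested, NeutrAvidin-enriched and analysed by diaPASEF. Competition ratio = intensity DMSO / intensity compound (n=4 treated, n=64 DMSO); binding: mean log2 CR ≥ 1 and p ≤ 0.05 plus QC filters. Target is the cysteine site.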

[2] = compound: ClCC(=O)N[C@H]1CCCc2ccccc12; assay: as above; conditions: treatment time: 4 h, cell line lysate: HEK293T
Method: as §1

Target | log2 mean competition ratio ([1]; 50 µM) | log2 mean competition ratio ([1]; 200 µM) | log2 mean competition ratio ([2]; 50 µM) | log2 mean competition ratio ([2]; 200 µM)
WDR46 C515 | -0.316 | -0.051 | -0.723 | 0.0353
WDR1 C225 (UniProt O75083) | -0.132 | 0.0708 | -0.166 | -0.0396
VWA8 C724 (UniProt A3KMH1) | 0.202 | -0.0301 | 0.0899 | -0.113
XPO6 C159 (UniProt Q96QU8) | -0.103 | -0.0182 | 0.164 | 0.0237
ZBTB11 C262 (UniProt O95625) | -0.0826 | -0.013 | -0.089 | -0.00655
WDR37 C417 (UniProt Q9Y2I8) | -0.21 | 0.083 | 0.0621 | -0.14
ZC3H3 C338 (UniProt Q8IXZ2) | -0.0782 | – | -0.0988 | -0.0355
VPS35L C253 (UniProt Q7Z3J2) | – | – | -0.327 | -0.0323
XIAP C213 (UniProt P98170) | – | – | -0.174 | 0.0874
ZBTB40 C282 (UniProt Q9NUA8) | – | -0.0689 | 0.00703 | -0.434
WARS1 C274 | – | – | -0.34 | 0.145
YEATS2 C338 (UniProt Q9ULM3) | 0.307 | 0.282 | 0.521 | -0.26
XPO5 C37 (UniProt Q9HAV4) | – | – | 0.208 | 0.142
YTHDC2 C245 (UniProt Q9H6S0) | -0.00239 | -0.0633 | 0.353 | 0.125
WDR36 C463 (UniProt Q8NI36) | – | – | -0.667 | -0.083
XPO7 C15 | -0.0316 | 0.158 | -0.269 | 0.144
VPS39 C844 (UniProt Q96JC1) | 0.0378 | -0.182 | 0.0844 | -0.197
XPO7 C123 | 0.156 | -0.108 | -0.168 | -0.0677
ZBTB21 C378 (UniProt Q9ULJ3) | – | – | 0.134 | 0.234
WNK3 C502 (UniProt Q9BYP7) | 0.101 | 0.331 | -0.249 | -0.148
WDFY3 C896 (UniProt Q8IZQ1) | – | – | -0.347 | -0.00622
XPO6 C547 (UniProt Q96QU8) | – | – | 0.064 | 0.147
WRN C771 (UniProt Q14191) | – | – | 0.259 | 0.324

An excerpt from above, reduced to log2 mean competition ratio ([1]; 50 µM), log2 mean competition ratio ([1]; 200 µM) and log2 mean competition ratio ([2]; 50 µM):
Target	log2 mean competition ratio ([1]; 50 µM)	log2 mean competition ratio ([1]; 200 µM)	log2 mean competition ratio ([2]; 50 µM)
WARS1 C274	–	–	-0.34
WNK3 C502 (UniProt Q9BYP7)	0.101	0.331	-0.249
